PubChem BioAssay AID1259327 – Drosophila RNAi Screening Center, 2017

- Purpose: 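Baseline ATP after transmembrane-protein gene knock-down with water vehicle only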
- Cell system: Drosophila S2R+ cells
- Reagents: long dsRNA against Drosophila genes
- Time to read-out: 5 days (water added on day 4, read one day later)
- Treatment: water added as vehicle, no metal, one day before read-out
- Measured: 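Luciferase ATP signal per well, normalised to plate mean, duplicate average converted to z-score across plates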
- Direction: ATP z-score: higher = more total ATP than typical wells; ATP luminescence: higher = more total ATP
- Active means: 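a hit is any knock-down whose absolute ATP z-score is greater than 1.5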
- Calls: active = hit: ATP up or down; inactive = no clear ATP change
Shown is a random part of about 3,100 reagents. Over the whole deposit, 378 (12%) got an active call. 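Hits include both directions; z-score sign shows ATP rise or fall; raw luminescence values are not plate-normalised.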 Names joined by + are all predicted targets of the reagent. Not stated in the record: the amount of reagent.

Dscam1 [SID104187199] | ATP z-score, duplicate mean = -1.07; ATP luminescence, replicate 1 (RLU) = 4.64e5; ATP luminescence, replicate 2 (RLU) = 5.82e5; call = inactive
Dscam1 [SID104201275] | ATP z-score, duplicate mean = -0.572; ATP luminescence, replicate 1 (RLU) = 5.86e5; ATP luminescence, replicate 2 (RLU) = 4.76e5; call = inactive
Dscam1 [SID104207645] | ATP z-score, duplicate mean = 1.27; ATP luminescence, replicate 1 (RLU) = 9.39e5; ATP luminescence, replicate 2 (RLU) = 1.01e6; call = inactive
Surf4 [SID104196667] | ATP z-score, duplicate mean = -0.188; ATP luminescence, replicate 1 (RLU) = 3.09e5; ATP luminescence, replicate 2 (RLU) = 6.96e5; call = inactive
Surf4 [SID104217452] | ATP z-score, duplicate mean = -2.01; ATP luminescence, replicate 1 (RLU) = 4.69e5; ATP luminescence, replicate 2 (RLU) = 3.50e5; call = active
Or46a + asRNA:CR43467 [SID104187282] | ATP z-score, duplicate mean = -0.621; ATP luminescence, replicate 1 (RLU) = 5.38e5; ATP luminescence, replicate 2 (RLU) = 5.88e5; call = inactive
Or46a + asRNA:CR43467 [SID104201297] | ATP z-score, duplicate mean = 0.494; ATP luminescence, replicate 1 (RLU) = 6.22e5; ATP luminescence, replicate 2 (RLU) = 6.21e5; call = inactive
Or46a + asRNA:CR43467 [SID104208198] | ATP z-score, duplicate mean = -0.192; ATP luminescence, replicate 1 (RLU) = 8.47e5; ATP luminescence, replicate 2 (RLU) = 7.57e5; call = inactive
CG31183 [SID104194195] | ATP z-score, duplicate mean = -0.128; ATP luminescence, replicate 1 (RLU) = 2.94e5; ATP luminescence, replicate 2 (RLU) = 7.45e5; call = inactive
CG31183 [SID104195346] | ATP z-score, duplicate mean = -0.517; ATP luminescence, replicate 1 (RLU) = 6.24e5; ATP luminescence, replicate 2 (RLU) = 6.79e5; call = inactive
ChT [SID104196088] | ATP z-score, duplicate mean = -0.71; ATP luminescence, replicate 1 (RLU) = 6.34e5; ATP luminescence, replicate 2 (RLU) = 6.31e5; call = inactive
Gr77a [SID104191238] | ATP z-score, duplicate mean = -1.19; ATP luminescence, replicate 1 (RLU) = 5.60e5; ATP luminescence, replicate 2 (RLU) = 6.95e5; call = inactive
Gr77a [SID104205352] | ATP z-score, duplicate mean = -0.572; ATP luminescence, replicate 1 (RLU) = 8.95e5; ATP luminescence, replicate 2 (RLU) = 1.03e6; call = inactive
NAAT1 [SID104198092] | ATP z-score, duplicate mean = 0.292; ATP luminescence, replicate 1 (RLU) = 5.38e5; ATP luminescence, replicate 2 (RLU) = 6.55e5; call = inactive
NAAT1 [SID104204159] | ATP z-score, duplicate mean = 0.397; ATP luminescence, replicate 1 (RLU) = 9.19e5; ATP luminescence, replicate 2 (RLU) = 8.26e5; call = inactive
SLC22A [SID104191618] | ATP z-score, duplicate mean = -1.17; ATP luminescence, replicate 1 (RLU) = 8.17e5; ATP luminescence, replicate 2 (RLU) = 6.71e5; call = inactive
SLC22A [SID104191619] | ATP z-score, duplicate mean = 0.888; ATP luminescence, replicate 1 (RLU) = 1.08e6; ATP luminescence, replicate 2 (RLU) = 9.50e5; call = inactive

3 entries from above, reduced to “ATP z-score, duplicate mean”.
Gr77a [SID104191238]: -1.19
Gr77a [SID104205352]: -0.572
NAAT1 [SID104198092]: 0.292
